The text below walks through data of patent publication US11807607B1, “Aminocarbazole compounds as antibacterial agents” (KING FAISAL UNIVERSITY, priority 2023, dated 2023).

The subject of assay [1] is Staphylococcus aureus ATCC BAA-1556 (MERSA resistant). The assay is described as follows: Antibacterial MIC, CLSI M07-A10 dilution susceptibility test. It counts as cell-based. To be noted: ATCCBAA1556.
In assay [2] the test system is Staphylococcus aureus ATCC 29213. The assay is described as above. It counts as cell-based. The conditions noted are these: ATCC29213.

The structures appear in SMILES notation. In brackets after ≈: the same amount, converted by molar mass.

On to `CN[C@H](CC(C)C)C(=O)N[C@H]1C(=O)N[C@@H](CC(N)=O)C(=O)N[C@H]2C(=O)N[C@H]3C(=O)N[C@H](C(=O)N[C@H](C(=O)O)c4cc(O)cc(O)c4-c4cc3ccc4O)[C@H](O)c3ccc(c(Cl)c3)Oc3cc2cc(c3O[C@@H]2O[C@H](CO)[C@@H](O)[C@H](O)[C@H]2O[C@H]2C[C@](C)(N)[C@H](O)[C@H](C)O2)Oc2ccc(cc2Cl)[C@H]1O` [Vancomycin, reference compound], for which the minimum inhibitory concentration (MIC) in assay [1] and in assay [2] was 1 µg/mL (≈ 0.69 µM) throughout.
